Values are the deposited “Percent Effect”, in %. The controls that fix the scale are not given in the record; negative values are as filed. This is an unselected part of the compounds tested.

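Whole-parasite assay of Trypanosoma brucei over 72 hours; the read-out is not stated. Tested at 30 µM. Direction is inferred from retests: higher values go with stronger inhibition. Values scatter widely below zero; nearly all retest evidence comes from the higher of the two concentrations used. About 64,000 compounds were tested under these conditions; 1.5% (about 940) showed 50% or more at least once.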

{"structure": "O=C(N[C@@H]1CCNC[C@H]1O)c1ccc(-c2ccc(F)cc2)cc1", "percent effect": -35.48}
{"structure": "CN(Cc1nc2ccccc2s1)C1CCCN(c2cccnn2)C1", "stereo": "stereo not shown", "percent effect": -13.75}
{"structure": "CC(C)Oc1cccc(CN2CCC(C(C)N3CCOCC3)CC2)c1", "stereo": "stereo not shown", "percent effect": -12.12}
{"structure": "[H][C@@]12CCN(Cc3ccncc3)[C@]1([H])CC[C@@H](C(=O)N1CCCCO1)O2", "percent effect": -8.719}
{"structure": "N#CCCN(Cc1cccnc1)C(=O)Cc1ccc(-n2cnnn2)cc1", "percent effect": -25.22}
{"structure": "O=C(O)C(F)(F)F.O=C(O)C(F)(F)F.[H][C@@]12CCC(=O)N(CC3CC3)[C@]1([H])CCN2Cc1ccccn1", "percent effect": 9.459}
{"structure": "COCCCn1c(CN2CCCC(O)C2)cnc1S(=O)(=O)C1CCCC1", "stereo": "stereo not shown", "percent effect": 18.3}
{"structure": "Cc1cnn(CC2CCCN2Cc2coc(-c3ccc(F)cc3)n2)c1", "stereo": "stereo not shown", "percent effect": -11.19}
{"structure": "CN(Cc1csc(-c2cccs2)n1)C(=O)CCn1ccccc1=O", "percent effect": 31.55}
{"structure": "Cc1oc(-c2ccsc2)nc1CC(=O)NCC(=O)Nc1cn[nH]c1", "percent effect": -8.972}
{"structure": "CN1CCC2(CC1)CN(CC1CC1)CC21CCNC1=O.O=C(O)C(F)(F)F.O=C(O)C(F)(F)F", "stereo": "stereo not shown", "percent effect": -10.56}
{"structure": "Cc1ccnc(SCC(=O)Nc2csc3nc(=O)c(C)nn23)n1", "percent effect": -26.26}
{"structure": "Cc1c(C(=O)NS(=O)(=O)c2ccsc2)cnn1CC(C)C", "percent effect": -20.81}
{"structure": "COCCc1noc(Cn2c(=O)[nH]c3ccccc32)n1", "percent effect": -21.71}
{"structure": "Fc1ccc(NCc2ncc[nH]2)cc1Br", "percent effect": -5.736}
{"structure": "O=C(O)C(F)(F)F.O=C(O)C(F)(F)F.c1cnc2c(c1)CN(C1CCOC1)CCN2CC1CC1", "stereo": "stereo not shown", "percent effect": -52.57}
{"structure": "O=C(CCN1CCCCO1)N1CCC(CO)(CCc2ccccc2)CC1", "percent effect": 4.832}
{"structure": "[H][C@]12CC[C@]([H])(CN(Cc3nccs3)C1)N(Cc1c(C)noc1C)C2=O", "percent effect": -18.72}
{"structure": "CNS(=O)(=O)CC(=O)N1CCC(c2ccc(F)c(F)c2)CC1", "percent effect": -48.84}
{"structure": "OC1COCCN(Cc2cccc(N3CCOCC3)c2)C1", "stereo": "stereo not shown", "percent effect": -20.94}
{"structure": "Cc1n[nH]c(C(=O)N2CCCC(C)CC2)c1Br", "stereo": "stereo not shown", "percent effect": -54.11}
{"structure": "CCn1cc(Cn2cc(-c3cccc(C(C)N(C)C)c3)nn2)cn1", "stereo": "stereo not shown", "percent effect": -1.617}
{"structure": "Cc1ccc(-c2nc(CNC3CCc4ncnn4C3)no2)cc1", "stereo": "stereo not shown", "percent effect": -14.27}
{"structure": "O=C(O)C(F)(F)F.[H][C@@]12CN(Cc3cc(C)cc(C)c3)C[C@]1([H])OCCN2CC(=O)N(C)C", "percent effect": -66.66}
{"structure": "CC(C)(C)OC(=O)N1CCC[C@H](NCc2cc[nH]c2)C1", "percent effect": -57.28}
{"structure": "Cc1c(Cl)c(CN2CCCC2Cn2cncn2)nc2ccccc12", "stereo": "stereo not shown", "percent effect": 16.41}
{"structure": "CCOCCC(=O)N1Cc2cnc(-c3ccccc3)nc2C1", "percent effect": 9.544}
{"structure": "CC1c2cccn2CCN1C(=O)CCc1nc(C2CC2)no1", "stereo": "stereo not shown", "percent effect": -19.16}
{"structure": "CNC(=O)C1Cn2ccnc2C2(CCN(c3ccc(C)nn3)CC2)O1", "stereo": "stereo not shown", "percent effect": -128.7}
{"structure": "CC(NC(=O)N(C)Cc1ccsc1)c1nncn1C", "stereo": "stereo not shown", "percent effect": -27.22}
{"structure": "c1cncc(N2CCCn3nnc(CN4CCOCC4)c3C2)c1", "percent effect": -17.93}
{"structure": "CC(C(=O)Nc1cccc(Cl)c1)N1CCN(Cc2ncc[nH]2)CC1", "stereo": "stereo not shown", "percent effect": -15.79}
{"structure": "OC1CCN(Cc2c(-c3ccco3)[nH]c3ncccc23)CC1", "percent effect": 6.046}
{"structure": "Cc1nn(C)cc1-c1ccnc(N(C)Cc2cccs2)n1", "percent effect": -23.27}
{"structure": "CCn1ncc(C(=O)N2CCCN(CCCc3ccccc3)CC2)c1C", "percent effect": -41.46}
{"structure": "Cn1cnnc1C1CCN(c2cncc(-n3cccn3)n2)CC1", "percent effect": 4.988}
{"structure": "CCC(=O)c1ccccc1NN1c2ccccc2C(=O)C1(C)OC", "stereo": "stereo not shown", "percent effect": -27.68}
{"structure": "Cc1cccc(C)c1OCCC(=O)N1CCC(c2nncn2C)CC1", "percent effect": 25.86}

Once more, the final 4:

structure,percent effect
CCn1ncc(C(=O)N2CCCN(CCCc3ccccc3)CC2)c1C,-41.46
Cn1cnnc1C1CCN(c2cncc(-n3cccn3)n2)CC1,4.988
CCC(=O)c1ccccc1NN1c2ccccc2C(=O)C1(C)OC (stereo not shown),-27.68
Cc1cccc(C)c1OCCC(=O)N1CCC(c2nncn2C)CC1,25.86

Data taken from ChEMBL document CHEMBL3988442, “University of Dundee, Small-Polar-MMV Screening Library” (2021).